From paper PMC7279416
These are yes or no findings as the source states them, for the method shown. In cells and extracts the contact can be indirect. Some results given as binding are weak or reduced against the parent protein; the word gives no strength.

Sequences of proteins named here, by UniProt entry; tags and fusion partners are left off. Residues count along the entry.
UniProt P35869, residues 11-848: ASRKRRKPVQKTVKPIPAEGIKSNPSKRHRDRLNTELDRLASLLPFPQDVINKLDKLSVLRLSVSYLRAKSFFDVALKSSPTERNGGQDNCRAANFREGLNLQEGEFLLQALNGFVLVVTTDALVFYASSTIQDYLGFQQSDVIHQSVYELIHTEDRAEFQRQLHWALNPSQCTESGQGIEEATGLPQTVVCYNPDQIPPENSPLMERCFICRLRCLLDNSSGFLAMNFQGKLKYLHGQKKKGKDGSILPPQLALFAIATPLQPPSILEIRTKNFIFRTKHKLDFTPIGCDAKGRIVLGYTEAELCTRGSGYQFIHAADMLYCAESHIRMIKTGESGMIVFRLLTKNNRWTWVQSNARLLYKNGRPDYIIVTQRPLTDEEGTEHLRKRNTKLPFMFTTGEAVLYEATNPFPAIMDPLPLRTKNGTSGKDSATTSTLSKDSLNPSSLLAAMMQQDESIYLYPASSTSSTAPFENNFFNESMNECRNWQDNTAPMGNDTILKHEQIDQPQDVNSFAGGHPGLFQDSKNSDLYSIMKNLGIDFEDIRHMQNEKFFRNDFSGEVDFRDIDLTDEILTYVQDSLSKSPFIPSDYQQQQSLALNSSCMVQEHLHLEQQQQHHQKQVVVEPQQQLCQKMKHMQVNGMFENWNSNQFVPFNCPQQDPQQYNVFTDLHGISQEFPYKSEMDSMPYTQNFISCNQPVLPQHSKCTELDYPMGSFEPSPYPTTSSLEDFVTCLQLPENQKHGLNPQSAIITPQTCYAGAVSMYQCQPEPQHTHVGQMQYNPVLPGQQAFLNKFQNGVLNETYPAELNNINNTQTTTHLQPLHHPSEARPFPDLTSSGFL

How the values were obtained:
[1] = target: aryl hydrocarbon receptor (human (endogenous in HeLa, A549, Hep3B, T-47D, MDA-MB-468)) (UniProt P35869); experiment: co-IP; 1-2 mg whole-cell lysate of wild type HeLa cells after 40 uM CQ for 6 h; AHR precipitated with anti-AHR monoclonal antibody A-3x and Protein G Dynabeads overnight at 4 °C; 25 mM HEPES pH 7.4, 0.15 M NaCl, 1 mM EDTA, 1 mM DTT, 10% glycerol, 0.05% Tween-20, 1 mg/mL BSA; Western blot for p62
[2] = target: aryl hydrocarbon receptor (human (endogenous in HeLa, A549, Hep3B, T-47D, MDA-MB-468)) (UniProt P35869); experiment: proximity ligation; Duolink in situ kit on methanol-fixed A549, Hep3B, T-47D and MDA-MB-468 cells, with or without CQ; mouse anti-AHR A-3x with rabbit anti-LC3B or rabbit anti-p62
[3] = target: aryl hydrocarbon receptor (human (endogenous in HeLa, A549, Hep3B, T-47D, MDA-MB-468)) (UniProt P35869); experiment: proximity ligation; Duolink in situ kit on methanol-fixed wild type and p23 knockdown HeLa cells, with or without 40 uM CQ for 6 h; mouse anti-AHR A-3x with rabbit anti-LC3B or rabbit anti-p62

Measured: binding

p62 (from UniProt Q13501 1-440)
binds: all assays above
